The values below are quoted from earlier work in paper PMC8015229, “Focus on Human Monoamine Transporter Selectivity. New Human DAT and NET Models, Experimental Validation, and SERT Affinity Exploration” (ACS Chemical Neuroscience, 2020).

In one series the target is DAT. Particulars: binding affinity for human transporters; cited from earlier work.
A further series deals with NET. The note with it: binding affinity for human transporters; cited from earlier work.

For `CNCCCC12CCC(c3ccccc31)c1ccccc12` [compound 7, maprotiline], the “DAT pKi exp” value on DAT is recorded as 6. In addition, at NET, the “NET pKi exp” value is given as 7.95.
